Results on 30 molecules are retold here after the supplement of paper PMC8256030.

Where “and” joins values, the source holds several entries; their conditions need not be identical. Equal entries are not always repeated. The list shows a part of the results. Repeats in this data set agree poorly, so a single value says little.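 HEK293T cells were given each compound shortly before transfection with a reporter in which red mCherry is followed by the SARS-CoV-2 frameshift element and then GFP in the −1 frame, so GFP appears only after frameshifting.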

In this test the test system is HEK293T. As to the kind of experiment: percent viability (nuclei count) relative to control; higher = more viable cells. The settings on record: 10 µM; 24 h.
Take `CCCC(CCC)C(=O)O` [valproate semisodium]: the percent viability was 188%.

As for `COCCCOc1cc(C[C@@H](C[C@H](N)[C@@H](O)C[C@H](C(=O)NCC(C)(C)C(N)=O)C(C)C)C(C)C)ccc1OC`, the percent viability came to 229%.

Take `Cc1cccc(/C=N/N2CCN(C(c3ccccc3)c3ccccc3)CC2)n1` [ropizine]: the percent viability is 76.9%.

For the molecule `CCc1ccc(C(=O)C(C)CN2CCCCC2)cc1` (stereo not given) [eperisone], the percent viability worked out at 193%.

Consider `CC(C)OC(=O)Nc1ccc2[nH]c(-c3cscn3)nc2c1` [cambendazole], for which the percent viability worked out at 47%.

In the case of `CS(=O)(=O)c1ccc(-c2cn3ccccc3n2)cc1` [zolimidine], the percent viability turned out to be 170%.

Turning to `O=P(O)(O)C(Sc1ccc(Cl)cc1)P(=O)(O)O` [tiludronic acid], the percent viability amounted to 320%.

Turning to `C=C1CC[C@H](O)C/C1=C/C=C1\CCC[C@]2(C)[C@@H]([C@H](C)/C=C/[C@H](C)C(C)C)CC[C@@H]12` [ergocalciferol], the percent viability was found to be 314%.

With `CC1CC(OC(=O)C(O)c2ccccc2)CC(C)(C)C1` (stereo not given) [cyclandelate], the percent viability turned out to be 254%.

Consider `CN(C)CCCN1c2ccccc2CCc2ccccc21` [imipramine], for which the percent viability is 315% and 219%.

Take `Cc1c(-c2cnccn2)ssc1=S` [oltipraz]: the percent viability is 129% and 220%.

`CC(=O)[C@H]1CC[C@H]2[C@@H]3CC=C4C=C(OC5CCCC5)CC[C@]4(C)[C@H]3CC[C@]12C` [quingestrone]: the percent viability was determined as 173%.

With `CCOC(=O)[C@H](CCc1ccccc1)N[C@@H](C)C(=O)N(CC(=O)O)C1Cc2ccccc2C1` [delapril], the percent viability amounted to 79.1%.

Turning to `CCC1(C)OC(=O)N(C)C1=O` (stereo not given) [paramethadione], the percent viability stood at 147%.

For the molecule `c1cc(CN2CCCNCCNCCCNCC2)ccc1CN1CCCNCCNCCCNCC1` [Mozobil], the percent viability was 323% and 300%.

Consider `CCCCc1ncc(/C=C(\Cc2cccs2)C(=O)O)n1Cc1ccc(C(=O)O)cc1` [eprosartan], for which the percent viability is 300% and 247%.

`CC[C@H](C)[C@@H]1NC(=O)[C@H](Cc2ccc(OC)cc2)NC(=O)CCCSC[C@@H](C(=O)N2CCC[C@H]2C(=O)N[C@@H](CC(C)C)C(=O)NCC(N)=O)NC(=O)[C@H](CC(N)=O)NC(=O)[C@H](CCC(N)=O)NC1=O`: the percent viability stood at 272%.

Turning to `CN1CCC(=C2c3ccccc3CC(=O)c3sccc32)CC1` [ketotifen], the percent viability was 229% and 185%.

In the case of `CCC[C@@H]1C[C@@H](C(=O)N[C@@H]([C@H]2O[C@H](SC)[C@H](O)[C@@H](O)[C@H]2O)[C@H](C)Cl)N(C)C1` [clindamycin], the percent viability was found to be 190%.

For the molecule `Nc1nc2c(ncn2COC(CO)CO)c(=O)[nH]1`, the percent viability was determined as 160%.

`COc1cc([S+](C)[O-])ccc1-c1nc2cccnc2[nH]1` (stereo not given) [sulmazole]: the percent viability came out at 207%.

Turning to `CSCC[C@H](NC(=O)[C@H](Cc1c[nH]c2ccccc12)NC(=O)CCNC(=O)OC(C)(C)C)C(=O)N[C@@H](CC(=O)O)C(=O)N[C@@H](Cc1ccccc1)C(N)=O`, the percent viability is 324%.

As to `Cc1cc2nc3c(=O)[nH]c(=O)nc-3n(C[C@H](O)[C@H](O)[C@H](O)CO)c2cc1C`, the percent viability was determined as 339%.

`O=C(O)[C@@H](c1ccc(OCc2ccc3ccccc3n2)cc1)C1CCCC1` [veliflapon]: the percent viability was 142%.

As for `COc1ccc(/C=C/C(=O)OCCC(C)C)cc1` [amiloxate], the percent viability was determined as 46.6%.

On to `CC[C@H]1OC(=O)[C@H](C)[C@@H](O[C@H]2C[C@@](C)(OC)[C@@H](O)[C@H](C)O2)[C@H](C)[C@@H](O[C@@H]2O[C@H](C)C[C@H](N(C)C)[C@H]2O)[C@](C)(O)C[C@@H](C)C(=O)[C@H](C)[C@@H](O)[C@]1(C)O` [erythromycin], for which the percent viability was 228% and 211%.

Take `Cc1ccc([C@@H]2O[C@H](CO)[C@@H](O)[C@H](O)[C@H]2O)cc1Cc1ccc(-c2ccc(F)cc2)s1` [Canagliflozin]: the percent viability turned out to be 175%.

For the molecule `C[C@@H]1[C@H](O)[C@@H](C)/C=C/C=C/C=C/C=C/C=C/C=C/C=C/[C@H](O[C@@H]2O[C@H](C)[C@@H](O)[C@H](N)[C@@H]2O)C[C@@H]2O[C@](O)(C[C@@H](O)C[C@@H](O)[C@H](O)CC[C@@H](O)C[C@@H](O)CC(=O)O[C@H]1C)C[C@H](O)[C@H]2C(=O)O` [amphotericin B], the percent viability is 187%.

As to `CC(C)NCC(O)COc1cccc2ccccc12` (stereo not given), the percent viability is 314%.

For `NC(CSSCC(N)C(=O)O)C(=O)O` (stereo not given), the percent viability was determined as 46.7%.
